Results reported in article PMC12794193.
Where two headings read alike, the source gives them in different places. No constants are given. Whether binding was seen depends on the method and setting. In cells and extracts the contact can be indirect. Some binding calls cover weakened binding; strength is not graded here. For part of these data: Tags and fused reporters may be left off the sequences shown.

Protein sequences, listed by entry. Tags and fused reporters are not part of them.
UniProt Q9ULZ3: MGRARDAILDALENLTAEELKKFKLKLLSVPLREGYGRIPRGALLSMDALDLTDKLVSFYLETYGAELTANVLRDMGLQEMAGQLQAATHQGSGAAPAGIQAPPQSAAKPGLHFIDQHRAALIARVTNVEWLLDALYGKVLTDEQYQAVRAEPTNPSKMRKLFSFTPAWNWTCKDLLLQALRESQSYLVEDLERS
UniProt Q96P20: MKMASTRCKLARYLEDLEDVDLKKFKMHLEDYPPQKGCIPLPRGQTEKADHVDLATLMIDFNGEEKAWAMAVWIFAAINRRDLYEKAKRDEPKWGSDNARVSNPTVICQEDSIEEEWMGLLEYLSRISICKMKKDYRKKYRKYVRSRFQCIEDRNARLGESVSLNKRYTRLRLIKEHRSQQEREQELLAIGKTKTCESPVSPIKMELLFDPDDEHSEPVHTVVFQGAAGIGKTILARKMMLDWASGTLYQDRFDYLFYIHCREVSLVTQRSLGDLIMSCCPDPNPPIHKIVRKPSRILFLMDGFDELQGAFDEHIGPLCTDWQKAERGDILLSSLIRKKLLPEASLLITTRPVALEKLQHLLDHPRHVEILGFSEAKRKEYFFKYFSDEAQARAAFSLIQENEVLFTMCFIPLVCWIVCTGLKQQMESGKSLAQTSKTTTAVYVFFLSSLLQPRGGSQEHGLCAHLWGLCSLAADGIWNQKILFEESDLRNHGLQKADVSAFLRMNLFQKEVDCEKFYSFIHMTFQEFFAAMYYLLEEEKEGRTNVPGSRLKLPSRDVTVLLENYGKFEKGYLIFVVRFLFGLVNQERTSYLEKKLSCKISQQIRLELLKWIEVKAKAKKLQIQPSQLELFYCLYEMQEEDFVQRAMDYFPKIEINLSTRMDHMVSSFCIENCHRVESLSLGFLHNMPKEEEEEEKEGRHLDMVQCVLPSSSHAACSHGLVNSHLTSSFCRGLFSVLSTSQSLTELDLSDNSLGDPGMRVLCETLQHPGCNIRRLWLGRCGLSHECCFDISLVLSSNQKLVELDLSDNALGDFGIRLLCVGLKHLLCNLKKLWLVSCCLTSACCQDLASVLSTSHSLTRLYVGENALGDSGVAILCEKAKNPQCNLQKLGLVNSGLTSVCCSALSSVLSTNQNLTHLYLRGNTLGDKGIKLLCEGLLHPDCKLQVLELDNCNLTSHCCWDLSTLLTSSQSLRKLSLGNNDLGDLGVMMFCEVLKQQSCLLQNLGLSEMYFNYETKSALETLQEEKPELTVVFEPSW
UniProt P29466: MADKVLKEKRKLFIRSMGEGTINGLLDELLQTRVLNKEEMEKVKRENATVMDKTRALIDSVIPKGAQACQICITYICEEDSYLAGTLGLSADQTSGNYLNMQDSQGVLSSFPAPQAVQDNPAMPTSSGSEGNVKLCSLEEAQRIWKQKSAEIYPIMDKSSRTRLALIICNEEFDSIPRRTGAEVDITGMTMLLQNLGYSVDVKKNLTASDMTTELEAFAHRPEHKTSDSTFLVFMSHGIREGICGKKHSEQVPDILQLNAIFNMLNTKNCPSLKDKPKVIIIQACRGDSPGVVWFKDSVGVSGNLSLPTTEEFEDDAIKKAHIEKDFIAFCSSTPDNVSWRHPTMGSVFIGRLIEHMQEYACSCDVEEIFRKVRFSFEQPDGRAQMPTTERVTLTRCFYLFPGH
UniProt Q8R4B8: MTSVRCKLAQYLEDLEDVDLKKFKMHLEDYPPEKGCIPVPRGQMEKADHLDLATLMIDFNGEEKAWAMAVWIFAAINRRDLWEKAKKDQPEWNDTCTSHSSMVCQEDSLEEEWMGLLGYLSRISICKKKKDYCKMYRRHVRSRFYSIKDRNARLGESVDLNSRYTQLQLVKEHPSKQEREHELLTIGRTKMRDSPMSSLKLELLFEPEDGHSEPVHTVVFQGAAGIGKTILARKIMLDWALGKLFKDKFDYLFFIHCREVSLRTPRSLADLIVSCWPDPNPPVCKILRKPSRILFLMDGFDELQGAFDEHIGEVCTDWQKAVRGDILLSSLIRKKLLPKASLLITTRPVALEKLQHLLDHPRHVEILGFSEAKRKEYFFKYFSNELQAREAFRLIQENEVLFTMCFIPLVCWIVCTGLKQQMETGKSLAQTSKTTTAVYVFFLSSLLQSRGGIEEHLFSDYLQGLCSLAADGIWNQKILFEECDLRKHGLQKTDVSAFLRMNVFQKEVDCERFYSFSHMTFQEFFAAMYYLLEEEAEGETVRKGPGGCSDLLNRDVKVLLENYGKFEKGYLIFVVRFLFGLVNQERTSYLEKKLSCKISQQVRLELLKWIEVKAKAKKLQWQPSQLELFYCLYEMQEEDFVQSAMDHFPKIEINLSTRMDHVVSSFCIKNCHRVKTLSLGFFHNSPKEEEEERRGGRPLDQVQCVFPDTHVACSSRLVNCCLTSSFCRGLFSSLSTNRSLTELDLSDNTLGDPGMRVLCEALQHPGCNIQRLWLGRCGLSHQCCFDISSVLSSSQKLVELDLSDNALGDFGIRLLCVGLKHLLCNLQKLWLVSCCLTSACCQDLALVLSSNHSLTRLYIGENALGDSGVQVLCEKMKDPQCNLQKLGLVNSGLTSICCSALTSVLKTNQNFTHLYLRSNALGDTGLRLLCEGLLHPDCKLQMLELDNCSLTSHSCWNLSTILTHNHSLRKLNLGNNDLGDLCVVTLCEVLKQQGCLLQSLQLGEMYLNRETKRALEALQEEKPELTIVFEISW

T1: Myc-SENP6 (human) (UniProt Q9GZR1)
T1 sequence: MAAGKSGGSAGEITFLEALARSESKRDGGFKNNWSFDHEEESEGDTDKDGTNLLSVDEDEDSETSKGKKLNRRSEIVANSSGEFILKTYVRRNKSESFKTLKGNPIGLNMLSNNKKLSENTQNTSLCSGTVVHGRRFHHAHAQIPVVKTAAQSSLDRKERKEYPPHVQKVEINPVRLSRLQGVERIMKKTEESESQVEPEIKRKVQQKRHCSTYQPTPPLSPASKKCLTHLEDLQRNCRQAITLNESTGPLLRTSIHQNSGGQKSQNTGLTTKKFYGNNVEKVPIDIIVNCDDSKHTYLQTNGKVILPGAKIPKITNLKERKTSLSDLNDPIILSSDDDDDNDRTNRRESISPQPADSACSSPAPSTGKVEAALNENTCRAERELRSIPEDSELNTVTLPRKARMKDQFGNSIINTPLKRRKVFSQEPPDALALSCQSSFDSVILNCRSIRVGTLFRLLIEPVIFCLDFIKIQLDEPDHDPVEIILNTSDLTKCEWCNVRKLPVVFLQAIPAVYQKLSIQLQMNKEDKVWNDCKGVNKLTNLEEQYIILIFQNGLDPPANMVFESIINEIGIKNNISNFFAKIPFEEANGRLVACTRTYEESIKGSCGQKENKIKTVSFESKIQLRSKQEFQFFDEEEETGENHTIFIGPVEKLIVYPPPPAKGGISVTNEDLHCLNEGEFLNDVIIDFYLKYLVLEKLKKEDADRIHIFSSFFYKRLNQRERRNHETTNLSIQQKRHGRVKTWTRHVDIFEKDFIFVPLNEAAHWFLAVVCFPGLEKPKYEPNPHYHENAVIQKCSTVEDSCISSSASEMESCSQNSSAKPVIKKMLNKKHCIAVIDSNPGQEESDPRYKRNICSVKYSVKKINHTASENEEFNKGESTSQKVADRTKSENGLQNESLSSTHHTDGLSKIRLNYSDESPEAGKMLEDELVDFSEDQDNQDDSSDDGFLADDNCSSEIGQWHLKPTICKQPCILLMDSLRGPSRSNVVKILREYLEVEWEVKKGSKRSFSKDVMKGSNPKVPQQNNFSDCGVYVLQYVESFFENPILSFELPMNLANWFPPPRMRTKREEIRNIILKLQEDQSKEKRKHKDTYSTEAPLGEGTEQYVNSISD

T2: Myc-SENP6^C1030S (human) (UniProt Q9GZR1)
T2 sequence: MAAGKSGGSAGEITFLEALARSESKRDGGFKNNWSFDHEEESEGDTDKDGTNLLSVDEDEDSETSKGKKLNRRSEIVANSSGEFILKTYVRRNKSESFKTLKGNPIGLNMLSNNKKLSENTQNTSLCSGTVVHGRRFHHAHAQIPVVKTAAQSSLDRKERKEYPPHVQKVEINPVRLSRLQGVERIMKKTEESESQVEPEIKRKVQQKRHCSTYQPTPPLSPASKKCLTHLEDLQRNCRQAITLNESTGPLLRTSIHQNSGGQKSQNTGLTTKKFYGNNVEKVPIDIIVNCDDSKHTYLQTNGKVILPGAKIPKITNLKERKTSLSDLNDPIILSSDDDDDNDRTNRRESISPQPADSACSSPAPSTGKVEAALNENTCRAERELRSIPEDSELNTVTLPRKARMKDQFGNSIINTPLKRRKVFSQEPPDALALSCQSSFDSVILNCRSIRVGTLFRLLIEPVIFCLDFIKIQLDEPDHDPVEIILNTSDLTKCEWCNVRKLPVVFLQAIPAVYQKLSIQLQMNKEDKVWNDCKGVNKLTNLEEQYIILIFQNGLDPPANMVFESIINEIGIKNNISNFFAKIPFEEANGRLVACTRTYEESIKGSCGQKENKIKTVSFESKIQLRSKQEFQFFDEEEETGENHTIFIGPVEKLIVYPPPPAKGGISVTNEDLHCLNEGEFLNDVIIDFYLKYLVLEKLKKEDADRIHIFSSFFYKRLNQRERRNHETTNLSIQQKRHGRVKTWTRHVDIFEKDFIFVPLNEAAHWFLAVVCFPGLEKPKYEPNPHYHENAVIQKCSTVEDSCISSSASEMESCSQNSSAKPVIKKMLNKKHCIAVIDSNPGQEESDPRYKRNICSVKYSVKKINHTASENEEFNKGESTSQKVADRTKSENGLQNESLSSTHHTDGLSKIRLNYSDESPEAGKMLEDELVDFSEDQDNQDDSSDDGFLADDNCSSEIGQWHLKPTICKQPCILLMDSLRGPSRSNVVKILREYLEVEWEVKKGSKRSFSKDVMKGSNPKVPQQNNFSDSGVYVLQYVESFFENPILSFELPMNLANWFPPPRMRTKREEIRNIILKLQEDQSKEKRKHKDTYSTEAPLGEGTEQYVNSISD

T3: endogenous SENP6 (mouse (endogenous in MH-S cells or peritoneal macrophages)) (UniProt Q6P7W0)
T3 sequence: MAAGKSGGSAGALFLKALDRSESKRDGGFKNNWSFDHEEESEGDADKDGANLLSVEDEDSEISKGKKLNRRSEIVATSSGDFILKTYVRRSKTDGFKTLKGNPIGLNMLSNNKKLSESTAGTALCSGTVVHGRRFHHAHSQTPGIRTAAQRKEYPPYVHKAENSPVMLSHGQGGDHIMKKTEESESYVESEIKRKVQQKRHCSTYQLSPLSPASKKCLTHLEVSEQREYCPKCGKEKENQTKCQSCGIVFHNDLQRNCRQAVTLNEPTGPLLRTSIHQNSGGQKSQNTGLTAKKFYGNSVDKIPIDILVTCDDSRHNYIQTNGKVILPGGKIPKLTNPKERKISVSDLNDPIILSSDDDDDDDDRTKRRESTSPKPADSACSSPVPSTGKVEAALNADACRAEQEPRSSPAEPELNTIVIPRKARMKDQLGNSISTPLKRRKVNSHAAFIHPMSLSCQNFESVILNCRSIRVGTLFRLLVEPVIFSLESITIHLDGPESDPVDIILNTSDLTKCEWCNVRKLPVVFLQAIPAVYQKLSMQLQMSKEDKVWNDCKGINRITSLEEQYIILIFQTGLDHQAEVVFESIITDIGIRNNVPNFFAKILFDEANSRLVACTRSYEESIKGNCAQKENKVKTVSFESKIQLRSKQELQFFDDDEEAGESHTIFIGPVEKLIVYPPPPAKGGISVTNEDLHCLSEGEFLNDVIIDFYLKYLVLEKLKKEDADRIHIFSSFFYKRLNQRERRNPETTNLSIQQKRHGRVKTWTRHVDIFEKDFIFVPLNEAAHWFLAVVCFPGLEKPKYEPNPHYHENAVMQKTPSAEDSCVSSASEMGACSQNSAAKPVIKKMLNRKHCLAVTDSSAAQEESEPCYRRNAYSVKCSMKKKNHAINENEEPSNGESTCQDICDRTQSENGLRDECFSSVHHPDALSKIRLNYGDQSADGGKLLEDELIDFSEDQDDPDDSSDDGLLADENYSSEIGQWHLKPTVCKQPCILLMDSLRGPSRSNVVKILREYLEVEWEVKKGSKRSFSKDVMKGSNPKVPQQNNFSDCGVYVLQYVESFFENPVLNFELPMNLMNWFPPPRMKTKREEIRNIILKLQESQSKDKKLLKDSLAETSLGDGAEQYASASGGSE


Assays:
Myc-SENP6 (human) [1] = target: T1, Myc-SENP6 (human); test: co-IP; HEK293T cells co-transfected with tagged constructs; lysis in 25 mM tris-HCl pH 7.4, 150 mM NaCl, 1 mM EDTA, 1% NP-40, 5% glycerol; antibody (anti-Myc or anti-Flag) overnight at 4 °C, protein A/G magnetic beads 4 h; immunoblot; some panels with CQ (10 μM, 6 h), Myc-SENP6 overexpression or Senp6 knock-down
Myc-SENP6^C1030S (human) = target: T2, Myc-SENP6^C1030S (human); test: as above
[2] = target: T3, endogenous SENP6 (mouse (endogenous in MH-S cells or peritoneal macrophages)); test: co-IP; endogenous proteins in mouse macrophages stimulated with LPS alone or with LPS followed by ATP; lysis in 25 mM tris-HCl pH 7.4, 150 mM NaCl, 1 mM EDTA, 1% NP-40, 5% glycerol; protein A/G magnetic beads; immunoblot
Myc-SENP6 (human) [3] = target: T1, Myc-SENP6 (human); test: co-IP; HEK293T cells co-transfected with tagged constructs; lysis in 25 mM tris-HCl pH 7.4, 150 mM NaCl, 1 mM EDTA, 1% NP-40, 5% glycerol; antibody (anti-Myc or anti-Flag) overnight at 4 °C, protein A/G magnetic beads 4 h; immunoblot; some panels with CQ (10 μM, 6 h), Myc-SENP6 overexpression or Senp6 knock-down; remark: listed apart in the source

Molecule | binding (Myc-SENP6 (human) [1]) | other results
Flag-PYCARD (from UniProt Q9ULZ3 1-195) | no binding | 
Flag-NLRP3 (from UniProt Q96P20 1-1036) | binds | binding (Myc-SENP6^C1030S (human)): binds
Flag-caspase-1 (from UniProt P29466 1-404) (enzyme) | no binding | 
endogenous NLRP3 (from UniProt Q8R4B8 1-1033) |  | binding [2]: binds
His-MARCHF7 (enzyme, UniProt Q9H992 1-704) MESKPSRIPRRISVQPSSSLSARMMSGSRGSSLNDTYHSRDSSFRLDSEYQSTSASASASPFQSAWYSESEITQGARSRSQNQQRDHDSKRPKLSCTNCTTSAGRNVGNGLNTLSDSSWRHSQVPRSSSMVLGSFGTDLMRERRDLERRTDSSISNLMDYSHRSGDFTTSSYVQDRVPSYSQGARPKENSMSTLQLNTSSTNHQLPSEHQTILSSRDSRNSLRSNFSSRESESSRSNTQPGFSYSSSRDEAPIISNSERVVSSQRPFQESSDNEGRRTTRRLLSRIASSMSSTFFSRRSSQDSLNTRSLNSENSYVSPRILTASQSRSNVPSASEVPDNRASEASQGFRFLRRRWGLSSLSHNHSSESDSENFNQESEGRNTGPWLSSSLRNRCTPLFSRRRREGRDESSRIPTSDTSSRSHIFRRESNEVVHLEAQNDPLGAAANRPQASAASSSATTGGSTSDSAQGGRNTGISGILPGSLFRFAVPPALGSNLTDNVMITVDIIPSGWNSADGKSDKTKSAPSRDPERLQKIKESLLLEDSEEEEGDLCRICQMAAASSSNLLIEPCKCTGSLQYVHQDCMKKWLQAKINSGSSLEAVTTCELCKEKLELNLEDFDIHELHRAHANEQAEYEFISSGLYLVVLLHLCEQSFSDMMGNTNEPSTRVRFINLARTLQAHMEDLETSEDDSEEDGDHNRTFDIA |  | binding (Myc-SENP6 (human) [3]): binds
